Assay results published in US20260042799A1, “APPLICATION OF PEPTIDE IN PREPARING DRUGS FOR TREATING AND/OR PREVENTING COGNITIVE IMPAIRMENT” (HUAZHONG UNIVERSITY OF SCIENCE AND TECHNOLOGY, priority 2024, published 2026).
Not every detail of the peptide structures is certain; ends, links or a residue may be inferred. Where no end group is shown, it is not given here.

Chains of the proteins cited; added tags and fusions are not shown. Residues count along the entry.
UniProt P42262, 25-883: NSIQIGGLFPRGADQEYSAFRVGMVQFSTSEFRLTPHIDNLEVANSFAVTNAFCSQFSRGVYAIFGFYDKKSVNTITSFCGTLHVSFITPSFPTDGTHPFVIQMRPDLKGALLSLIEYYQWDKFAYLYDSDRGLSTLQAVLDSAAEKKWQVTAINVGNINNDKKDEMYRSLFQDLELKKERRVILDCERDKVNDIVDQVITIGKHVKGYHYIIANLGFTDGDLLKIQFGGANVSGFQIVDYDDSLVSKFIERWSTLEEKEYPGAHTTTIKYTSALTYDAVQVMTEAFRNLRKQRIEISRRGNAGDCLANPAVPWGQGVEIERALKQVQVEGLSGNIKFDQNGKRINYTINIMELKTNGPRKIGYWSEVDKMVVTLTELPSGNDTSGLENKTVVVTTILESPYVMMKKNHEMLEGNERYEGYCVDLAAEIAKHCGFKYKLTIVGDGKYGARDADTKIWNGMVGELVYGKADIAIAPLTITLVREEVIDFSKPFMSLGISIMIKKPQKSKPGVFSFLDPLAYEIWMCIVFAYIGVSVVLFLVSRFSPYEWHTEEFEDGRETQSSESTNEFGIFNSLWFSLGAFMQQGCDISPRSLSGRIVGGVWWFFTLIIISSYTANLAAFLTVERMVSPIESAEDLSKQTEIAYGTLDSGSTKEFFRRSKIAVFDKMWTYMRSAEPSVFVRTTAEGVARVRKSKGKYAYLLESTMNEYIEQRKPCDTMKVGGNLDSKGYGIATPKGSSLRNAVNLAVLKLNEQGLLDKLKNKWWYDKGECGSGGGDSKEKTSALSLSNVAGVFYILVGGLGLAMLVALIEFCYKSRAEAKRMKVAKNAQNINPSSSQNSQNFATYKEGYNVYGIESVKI

Columns and labels:
[1] = biological target: T1, binding between HA-GluA2 and EGFP-Syn2b (Homo sapiens, UniProt P42262); assay: Co-immunoprecipitation/immunoblotting of Syn2b-GluA2 binding in co-transfected HEK293T cells; format: cell-based; conditions: 10 μM peptide in culture medium for 90 minutes, 48 hours after transfection
T1 construct: HA; expressed in transfected cells; host or cells: HEK293T
Method: First, HA-GluA2 and EGFP-Syn2b overexpression plasmids were transfected into HEK293T cells. After 48 hours of transfection, 10 μM concentration of TAT-P6 and TAT-S6 peptides were given in the cell culture medium for 90 minutes, […] and then cells were collected. The overexpressed Syn2b protein is a fusion protein of Syn2b and GFP, using anti-GFP antibody to precipitate cellular proteins, and then using anti-GluA2 antibody to detect the precipitated proteins, the black imprint on the NC membrane indicates the interaction between GluA2 and Syn2b.
Open field experiment: The open field experiment is an experiment in which animals are placed in a closed open metal box area with a length of 80 cm, width of 80 cm, and height of 50 cm to observe mouse activity. This area is divided into squares, and typically the number of squares crossed by mice within a given time is counted to examine the anxiety emotional state and movement ability of the experimental mice. […] Recording is stopped after observing for a certain time, generally about 5 minutes. • 3) Quantify mouse hippocampal related protein content: immunoblotting; • 4) Disrupting the binding of Syn2b and GluA2 in HEK 293T cells: co-immunoprecipitation, immunoblotting. […]

[2] = system: AMPA current and NMDA current in the hippocampal brain region; assay: Electrophysiological recording of AMPA and NMDA current in hippocampal brain slices; format: cell-based, mice; conditions: 10 μM in perfusion solution, 30 min, compared with 10 μM TAT-S6

For “YGRKKRRQRRRYILDCN [TAT-P6, YGRKKRRQRRRYILDCN]”, the “GluA2 detected by anti-GluA2 antibody in anti-GFP (Syn2b) precipitate; interaction between Syn2b and GluA2” value [1] was “could hardly detect the corresponding protein”, the AMPA current amplitude [2] was “increased” and the NMDA current [2] was “no significant change”. For the same sequence, the NMDA/AMPA ratio [2] was “significantly decreased”.
